Patent publication US20140323341A1, “SYSTEMS AND METHODS FOR ASSESSMENT OF BIOSIMILARITY” (ATTAGENE, INC., priority 2011, published 2014)

Tested on: NR activity in HepG2 cells
Conditions: 0.1 mM, 24 hours, 46 transcription factors; for r. correlation between organotins' TF signatures, vs ACT: Pearson correlation with ACT signature; for r. correlation between organotins' TF signatures, vs Cyh: Pearson correlation with Cyh signature; for r. correlation between organotins' TF signatures, vs TBT: Pearson correlation with TBT signature; for r. correlation between organotins' TF signatures, vs TPT: Pearson correlation with TPT signature

Structure (SMILES)	r. correlation between organotins' TF signatures, vs ACT	r. correlation between organotins' TF signatures, vs Cyh	r. correlation between organotins' TF signatures, vs TBT	r. correlation between organotins' TF signatures, vs TPT
c1nc[n]([Sn]([CH]2CCCCC2)([CH]2CCCCC2)[CH]2CCCCC2)n1 [ACT, azocyclotin]	1	0.95	0.95	0.97
[OH][Sn]([CH]1CCCCC1)([CH]1CCCCC1)[CH]1CCCCC1 [Cyh, cyhexatin]	0.95	1	0.93	0.95
